No constants are given. Whether binding was seen depends on the method and setting. In cells and extracts the contact can be indirect. A yes stands for co-enrichment or nearness to the bait. Other partners may have been found. Tags and fused reporters may be left off the sequences shown.
Molecular target: T1, Flag-FRMD8 (human) (UniProt Q9BZ67)
T1 sequence: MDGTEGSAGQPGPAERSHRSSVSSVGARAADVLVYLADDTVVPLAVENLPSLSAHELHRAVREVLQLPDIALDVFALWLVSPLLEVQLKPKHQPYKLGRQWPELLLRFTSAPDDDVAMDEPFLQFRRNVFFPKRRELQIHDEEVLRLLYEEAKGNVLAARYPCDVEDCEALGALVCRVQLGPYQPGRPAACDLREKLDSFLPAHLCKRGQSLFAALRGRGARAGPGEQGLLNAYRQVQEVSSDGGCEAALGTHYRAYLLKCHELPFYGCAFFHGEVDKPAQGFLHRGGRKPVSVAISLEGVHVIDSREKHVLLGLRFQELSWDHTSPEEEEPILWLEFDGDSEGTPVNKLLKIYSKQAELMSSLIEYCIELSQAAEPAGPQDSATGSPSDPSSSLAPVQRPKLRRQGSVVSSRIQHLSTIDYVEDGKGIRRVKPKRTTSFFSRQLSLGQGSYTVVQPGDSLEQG
Test: affinity purification with mass spectrometry; HEK293A cells transiently expressing Flag-FRMD8 or empty vector, anti-Flag M2 agarose beads overnight at 4°C, PBS washes, SDS-PAGE, LC-MS/MS

By UniProt entry, the sequences of proteins in these tests, tags left out.
UniProt Q05086: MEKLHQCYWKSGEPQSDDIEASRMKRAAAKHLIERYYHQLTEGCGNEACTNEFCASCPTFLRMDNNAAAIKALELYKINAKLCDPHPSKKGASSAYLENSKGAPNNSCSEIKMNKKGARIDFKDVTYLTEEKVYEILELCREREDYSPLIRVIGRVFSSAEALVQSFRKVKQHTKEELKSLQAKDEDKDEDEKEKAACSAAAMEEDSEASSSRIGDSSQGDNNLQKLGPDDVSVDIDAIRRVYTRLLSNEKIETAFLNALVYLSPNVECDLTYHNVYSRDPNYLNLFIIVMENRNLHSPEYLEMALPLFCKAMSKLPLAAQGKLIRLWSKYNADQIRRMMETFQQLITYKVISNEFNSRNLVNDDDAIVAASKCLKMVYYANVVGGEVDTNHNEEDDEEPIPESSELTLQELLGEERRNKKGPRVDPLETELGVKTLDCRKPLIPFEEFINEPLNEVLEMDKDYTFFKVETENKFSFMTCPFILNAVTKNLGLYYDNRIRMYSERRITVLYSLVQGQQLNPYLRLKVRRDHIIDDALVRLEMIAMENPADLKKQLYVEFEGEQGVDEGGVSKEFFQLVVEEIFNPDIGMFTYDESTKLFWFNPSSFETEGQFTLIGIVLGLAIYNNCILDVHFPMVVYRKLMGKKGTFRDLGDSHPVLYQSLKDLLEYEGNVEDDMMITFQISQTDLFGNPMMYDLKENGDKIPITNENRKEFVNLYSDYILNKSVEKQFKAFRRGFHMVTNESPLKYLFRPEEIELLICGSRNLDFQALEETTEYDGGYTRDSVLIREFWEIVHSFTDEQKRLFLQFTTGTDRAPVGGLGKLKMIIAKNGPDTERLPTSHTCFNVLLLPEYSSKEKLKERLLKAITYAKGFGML

- binding: binds
Substance: endogenous UBE3A (from UniProt Q05086 1-875) (enzyme)
